Record: PubChem BioAssay AID504795 (Drosophila RNAi Screening Center, 2011)

Aim: 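Fly genes whose loss alters neurite growth or neural cell form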 (primary screen)
Cell system: primary Drosophila neurons and glia
Knock-down reagent: long dsRNA against Drosophila genes, 250 ng dsRNA per well
Time to read-out: one week
Detection: 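GFP-labelled neurons and glia imaged live by automated microscope one week after 250 ng dsRNA per well; morphology scored by eye as descriptive phenotype terms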
This is not the whole library: the list holds selected reagents. 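Every listed dsRNA shows some phenotype; how reagents were selected for listing is not stated.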 Names joined by + are all predicted targets of the reagent. Reagent sequences are not shown.

Target gene,PubChem SID,"phenotype seen, replicate 1","phenotype seen, replicate 2"
Cep89,SID104186902,fewer cells,
CG11438,SID104191452,cell fragments present,
RpS12,SID104191062,too many neurite branches,
CG10005,SID104193964,axon bundles split apart,
eyg,SID104191136,abnormal cell clusters,
Polr2A,SID104200072,reduced axon outgrowth,
CG13239,SID104191486,too many neurite branches,
Mob2,SID104188911,abnormal cell clusters,
CG9973 (retired record),SID104188438,axon bundles split apart,
Pomp,SID104182993,abnormal cell clusters,
tkv,SID104183415,sheet-like cell extensions,
Frl,SID104189819,axon bundles split apart,
Rpt4R,SID104190583,too many neurite branches,
CG40341 (retired record),SID104181559,reduced axon outgrowth,
CG7054,SID104195977,axon bundles split apart,
CG11362,SID104183898,abnormal cell clusters,
Cys,SID104196429,abnormal cell clusters,
LysP,SID104188468,axon bundles split apart,
Tailor,SID104192318,sheet-like cell extensions,
SNCF,SID104189907,axon bundles split apart,abnormal cell clusters
ZnT63C,SID104201590,reduced axon outgrowth,
Pgant1,SID104186887,axon bundles split apart,
CG14036,SID104182153,cell fragments present,
CG13085,SID104181981,axon bundles split apart,
lft,SID104182028,too many neurite branches,
Cyp313a3,SID104196418,too many neurite branches,
Syx4,SID104198378,too many neurite branches,
TotB,SID104195634,too many neurite branches,
eIF4E5,SID104190767,too many neurite branches,
CG14892,SID104194806,too many neurite branches,
Vang,SID104187362,fewer cells,
CG18659,SID104186576,axon bundles split apart,
nmo,SID104191169,axon bundles split apart,
Liprin-beta,SID104189587,abnormal cell clusters,
CG7377,SID104190622,cell fragments present,
CG14854,SID104194770,too many neurite branches,
ovo,SID104198604,sheet-like cell extensions,
side,SID104194509,too many neurite branches,
Mkk4,SID104196531,sheet-like cell extensions,
Tango8,SID104186266,abnormal cell clusters,
Madm,SID104191921,axon bundles split apart,
Coq4 + Gorab + frc,SID104190175,cell fragments present,
slp2,SID104180628,beaded; swollen axons,
CG42249,SID104199618,axon bundles split apart,
Sam-S,SID104180550,reduced axon outgrowth,
CG13436,SID104186188,abnormal cell clusters,
CG1552,SID104199457,too many neurite branches,
RpS14b,SID104198503,abnormal cell clusters,
CG14915,SID104182191,too many neurite branches,
CG4734,SID104186677,fewer cells,
CG9993,SID104184391,reduced axon outgrowth,
CG4866,SID104186691,axon bundles split apart,
CG8736,SID104187047,beaded; swollen axons,
l(1)10Bb,SID104200138,too many neurite branches,
Rrp46,SID104195329,sheet-like cell extensions,
cg,SID104187442,reduced axon outgrowth,
mdu,SID104199652,abnormal cell clusters,
CG42697,SID104185532,too many neurite branches,
CG13739,SID104186202,axon bundles split apart,
Cpr78Cc,SID104191638,sheet-like cell extensions,
CG4611,SID104190226,too many neurite branches,
Oatp58Da,SID104184157,too many neurite branches,
nkd,SID104191168,reduced axon outgrowth,
CG34165,SID104181762,cell fragments present,abnormal cell clusters
fred,SID104180391,axon bundles split apart,
CG2187,SID104195217,abnormal cell clusters,
CG13386,SID104182052,axon bundles split apart,
CG14109,SID104189904,reduced axon outgrowth,
CG34299,SID104193766,beaded; swollen axons,
CG14440,SID104197725,abnormal cell clusters,
mrva,SID104201489,sheet-like cell extensions,
drd,SID104201203,too many neurite branches,
S-Lap5,SID104186524,reduced axon outgrowth,
ND-PDSW,SID104180507,axon bundles split apart,
CG34423 + Mthfs,SID104183880,abnormal cell clusters,
metro,SID104186517,axon bundles split apart,
RpL18A,SID104187330,reduced axon outgrowth,
BG642163,SID104180135,abnormal cell clusters,
Polr1D + DCTN6-p27,SID104181886,cell fragments present,
Polr1E,SID104195150,cell fragments present,
CG6356,SID104195818,axon bundles split apart,
zpg,SID104189494,abnormal cell clusters,
LpR2,SID104193518,axon bundles split apart,
CG34284,SID104194565,too many neurite branches,
shep,SID104189563,axon bundles split apart,
His2B:CG33870 + His2B:CG33868 + His2B:CG33882 + 21 more,SID104183549,fewer cells,
gudu,SID104182612,cell fragments present,
CG17211,SID104182379,axon bundles split apart,
Cpr64Ac,SID104188254,axon bundles split apart,

16 entries from above, set out differently.
{"Target gene": "Sam-S", "PubChem SID": "SID104180550", "phenotype seen, replicate 1": "reduced axon outgrowth"}
{"Target gene": "CG13436", "PubChem SID": "SID104186188", "phenotype seen, replicate 1": "abnormal cell clusters"}
{"Target gene": "CG1552", "PubChem SID": "SID104199457", "phenotype seen, replicate 1": "too many neurite branches"}
{"Target gene": "RpS14b", "PubChem SID": "SID104198503", "phenotype seen, replicate 1": "abnormal cell clusters"}
{"Target gene": "CG14915", "PubChem SID": "SID104182191", "phenotype seen, replicate 1": "too many neurite branches"}
{"Target gene": "CG4734", "PubChem SID": "SID104186677", "phenotype seen, replicate 1": "fewer cells"}
{"Target gene": "CG9993", "PubChem SID": "SID104184391", "phenotype seen, replicate 1": "reduced axon outgrowth"}
{"Target gene": "CG4866", "PubChem SID": "SID104186691", "phenotype seen, replicate 1": "axon bundles split apart"}
{"Target gene": "CG8736", "PubChem SID": "SID104187047", "phenotype seen, replicate 1": "beaded; swollen axons"}
{"Target gene": "l(1)10Bb", "PubChem SID": "SID104200138", "phenotype seen, replicate 1": "too many neurite branches"}
{"Target gene": "Rrp46", "PubChem SID": "SID104195329", "phenotype seen, replicate 1": "sheet-like cell extensions"}
{"Target gene": "cg", "PubChem SID": "SID104187442", "phenotype seen, replicate 1": "reduced axon outgrowth"}
{"Target gene": "mdu", "PubChem SID": "SID104199652", "phenotype seen, replicate 1": "abnormal cell clusters"}
{"Target gene": "CG42697", "PubChem SID": "SID104185532", "phenotype seen, replicate 1": "too many neurite branches"}
{"Target gene": "CG13739", "PubChem SID": "SID104186202", "phenotype seen, replicate 1": "axon bundles split apart"}
{"Target gene": "Cpr78Cc", "PubChem SID": "SID104191638", "phenotype seen, replicate 1": "sheet-like cell extensions"}

Further reagents follow:
Target gene,PubChem SID,"phenotype seen, replicate 1","phenotype seen, replicate 2"
MTF-1,SID104191009,axon bundles split apart,
loqs,SID104182789,abnormal cell clusters,
Obp56i,SID104185604,axon bundles split apart,
RpL9,SID104183210,abnormal cell clusters,
Pabp2,SID104187293,sheet-like cell extensions,
Meics,SID104191205,axon bundles split apart,
mus81,SID104198436,abnormal cell clusters,
Obp83g,SID104192061,axon bundles split apart,
CG4842,SID104190245,too many neurite branches,
RpS28a,SID104194856,abnormal cell clusters,
CG14883,SID104194799,axon bundles split apart,
CG5653,SID104190326,too many neurite branches,
CG14762,SID104184865,axon bundles split apart,
pum,SID104196829,reduced axon outgrowth,axon bundles split apart
ebi,SID104180608,axon bundles split apart,
Mitf,SID104197004,abnormal cell clusters,
Usp5,SID104188036,too many neurite branches,
Polr2J,SID104182787,too many neurite branches,
CG18095,SID104181740,too many neurite branches,
deltaCOP,SID104198552,axon bundles split apart,
c(2)M,SID104181714,too many neurite branches,
LysB,SID104188465,axon bundles split apart,
Psc,SID104187310,axon bundles split apart,
CG32425,SID104191531,axon bundles split apart,
kis,SID104180615,reduced axon outgrowth,
Polr3F,SID104195577,too many neurite branches,
CG17698,SID104191699,too many neurite branches,
Cdc42,SID104200020,sheet-like cell extensions,
msd1,SID104188175,axon bundles split apart,
Ada2b,SID104196323,abnormal cell clusters,
CG3222,SID104190147,axon bundles split apart,
CheB93b,SID104201430,reduced axon outgrowth,
Eip93F,SID104201423,beaded; swollen axons,
Brf,SID104193958,axon bundles split apart,
Brf,SID104193959,abnormal cell clusters,
Sms,SID104190200,axon bundles split apart,
Apc,SID104193906,abnormal cell clusters,
Samuel,SID104182193,abnormal cell clusters,
Samuel,SID104201402,too many neurite branches,cell fragments present
CG13457,SID104189796,axon bundles split apart,sheet-like cell extensions
Gr5a,SID104197877,too many neurite branches,
Rbp,SID104195516,beaded; swollen axons,
mRpL3,SID104199892,axon bundles split apart,
CG32432,SID104191495,fewer cells,
SmydA-6,SID104187133,too many neurite branches,
RpS27A,SID104183213,cell fragments present,
CG11052,SID104194080,reduced axon outgrowth,
CG14630,SID104198445,sheet-like cell extensions,
rad (retired record),SID104202224,axon bundles split apart,
